This experiment concerns the target Ino80, catalytic subunit of the INO80 complex, with C-terminal double FLAG tag (Saccharomyces cerevisiae) (UniProt P53115). Nature of the experiment: co-IP; INO80 complex purified from yeast through the double FLAG tag on Ino80 (ANTI-FLAG M2 Affinity Gel, FLAG peptide elution); subunits seen on SDS-PAGE after DNA photo-crosslinking and label transfer, Arp4 told from Ies2 by immunoprecipitation of Arp4.

The chains behind the UniProt entries cited, without tags or fusion partners.
UniProt P53115: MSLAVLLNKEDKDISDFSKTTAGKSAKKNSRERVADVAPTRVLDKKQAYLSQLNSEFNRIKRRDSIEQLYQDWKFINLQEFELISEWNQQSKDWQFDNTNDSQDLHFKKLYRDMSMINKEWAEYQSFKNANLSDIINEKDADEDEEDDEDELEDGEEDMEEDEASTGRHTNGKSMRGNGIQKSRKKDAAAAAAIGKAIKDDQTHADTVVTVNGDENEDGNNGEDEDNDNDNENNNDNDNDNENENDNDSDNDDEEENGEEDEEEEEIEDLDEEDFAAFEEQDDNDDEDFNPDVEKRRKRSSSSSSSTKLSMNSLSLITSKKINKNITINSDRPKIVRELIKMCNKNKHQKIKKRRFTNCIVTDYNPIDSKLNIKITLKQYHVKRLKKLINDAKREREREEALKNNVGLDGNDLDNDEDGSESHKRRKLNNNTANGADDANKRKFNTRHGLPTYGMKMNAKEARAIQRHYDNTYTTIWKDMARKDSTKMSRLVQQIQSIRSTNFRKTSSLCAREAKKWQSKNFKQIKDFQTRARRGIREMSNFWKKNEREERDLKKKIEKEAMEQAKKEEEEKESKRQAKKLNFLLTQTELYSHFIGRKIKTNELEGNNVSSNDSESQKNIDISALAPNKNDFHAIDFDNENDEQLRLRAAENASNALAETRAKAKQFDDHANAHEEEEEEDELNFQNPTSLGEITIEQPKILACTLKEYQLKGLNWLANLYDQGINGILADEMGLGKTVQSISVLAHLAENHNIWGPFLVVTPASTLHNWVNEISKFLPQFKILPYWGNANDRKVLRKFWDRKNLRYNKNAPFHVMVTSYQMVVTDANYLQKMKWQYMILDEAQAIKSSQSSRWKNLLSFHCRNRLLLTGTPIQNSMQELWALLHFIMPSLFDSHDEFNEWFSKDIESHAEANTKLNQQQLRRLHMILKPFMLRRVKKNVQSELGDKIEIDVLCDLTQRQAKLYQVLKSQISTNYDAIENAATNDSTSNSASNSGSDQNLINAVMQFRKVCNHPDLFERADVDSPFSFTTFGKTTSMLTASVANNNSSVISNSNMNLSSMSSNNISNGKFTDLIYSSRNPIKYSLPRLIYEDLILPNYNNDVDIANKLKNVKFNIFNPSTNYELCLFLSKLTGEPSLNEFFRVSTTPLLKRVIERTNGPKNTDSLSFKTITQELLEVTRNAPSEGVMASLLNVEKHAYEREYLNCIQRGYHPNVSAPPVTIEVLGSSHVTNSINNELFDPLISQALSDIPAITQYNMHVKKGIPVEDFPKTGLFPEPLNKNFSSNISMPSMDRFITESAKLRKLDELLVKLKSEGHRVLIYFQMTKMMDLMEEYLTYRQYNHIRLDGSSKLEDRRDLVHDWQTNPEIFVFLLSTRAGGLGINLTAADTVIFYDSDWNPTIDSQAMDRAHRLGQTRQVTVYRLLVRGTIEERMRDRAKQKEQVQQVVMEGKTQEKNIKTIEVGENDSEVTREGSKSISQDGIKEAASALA

These are yes or no findings as the source states them, for the method shown. Binding seen in cells or lysates may run through a third protein. Some results given as binding are weak or reduced against the parent protein; the word gives no strength.

B1: Ies2 (protein, UniProt P40154 1-320)
chain: MDSEASDIEAELSDSVSAGGEEYIDDDDYTEDIDDQIVTAKSSRRTARRSVPKGVRTSKRIRDKELSVEVDEDYDEEEDVLSPSKKRHLHTRSMDKRQVAATASEKSDIGDSKGNDGEIEDGILEEEESLEKELNRGGGKEVEKSEESYYAQNDVGQKGEEEQDGESGGYEDNEPSISKESDELVSVVNGNGNEEDDEVEATKENTTDSTRSTTTRSKMLLDLLEDGGSKKKLTDEEIQLRRAENARKRKNLSEKRLEEEKQDTINKLLKKRAGKSRSHLPNDDEKNDGSSSFVKPRRPYNSEGMTRILRRYEEDLFCTF
Consider B1, for which the binding entry is “binds”.

The values above are taken from article PMC5472786.
